{
  "source": "the supplement of paper PMC8104966",
  "note": "The list shows a part of the results. Single values are uncertain here, since repeats match poorly.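 U2OS cells carrying ACE2 were mixed with U2OS cells carrying full-length spike, and fusion was scored by imaging as the share of nuclei showing both cell types' fluorescent markers. A compound counts as an inhibitory hit when it is non-toxic and its fusion z-score falls below -3, meaning more than three standard deviations below the plate's DMSO wells.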",
  "data": [
    {"system": "U2OS ACE2 x SARS-CoV-2 spike co-culture", "assay": "cell-cell fusion (fraction fused) z-score vs plate DMSO control; higher = more fusion", "conditions": "30 µM; 5 h; toxicity class: non-toxic, passed QC", "values": [
      {"smiles": "CC(C(=O)O)c1ccc2c(c1)[nH]c1ccc(Cl)cc12", "note": "(stereo not given)", "cell-cell fusion (z-score)": "inactive: -0.186"},
      {"smiles": "CC1/C(=N/O)C[C@@H]2C[C@H]1C2(C)C", "note": "(stereo not given in full)", "cell-cell fusion (z-score)": "inactive: 2"},
      {"smiles": "CC(=O)Oc1cccc(O)c1", "cell-cell fusion (z-score)": "inactive: 3.39"},
      {"smiles": "N[C@H](CO)Cc1ccccc1", "cell-cell fusion (z-score)": "inactive: 3.48"},
      {"smiles": "Cc1cc(O)c2c(c1)C(=O)c1cc(O)cc(O)c1C2=O", "cell-cell fusion (z-score)": "inactive: 2.68"},
      {"smiles": "CC(=O)O.N=C(N)N/N=C/c1c(Cl)cccc1Cl", "note": "[Guanabenz Acetate]", "cell-cell fusion (z-score)": "inactive: 0.092"},
      {"smiles": "CN(C)C(=O)N[C@H]1CC[C@H](CCN2CCN(c3cccc(Cl)c3Cl)CC2)CC1", "note": "[Cariprazine]", "cell-cell fusion (z-score)": "inactive: 1.05"},
      {"smiles": "COc1ccc(CCC(=O)c2c(O)cc(O[C@@H]3O[C@H](CO)C(O)[C@H](O)C3O[C@@H]3O[C@@H](C)[C@H](O)[C@@H](O)[C@H]3O)cc2O)cc1O", "note": "(stereo not given in full)", "cell-cell fusion (z-score)": "inactive: 2.54"},
      {"smiles": "O=C(Nc1ncc([N+](=O)[O-])s1)c1ccc([N+](=O)[O-])c(Cl)c1", "note": "[NFκB Activation Inhibitor III]", "cell-cell fusion (z-score)": "inactive: 2.45"},
      {"smiles": "COc1ccccc1N1CCN(CCCCNC(=O)c2ccc3ccccc3c2)CC1", "cell-cell fusion (z-score)": "inactive: 1.65"},
      {"smiles": "CC(N)Cc1c[nH]c2ccc(O)cc12.O=C(O)/C=C\\C(=O)O", "note": "(stereo not drawn) [alpha-Methyl-5-hydroxytryptamine maleate]", "cell-cell fusion (z-score)": "inactive: 2.6"},
      {"smiles": "O=C1NC(=O)c2c1c(-c1ccccc1)cc1[nH]c3ccc(O)cc3c21", "cell-cell fusion (z-score)": "active: -5.17"},
      {"smiles": "Cc1cc(=O)oc2c(O)c(O)ccc12", "cell-cell fusion (z-score)": "inactive: 1.29"},
      {"smiles": "NC[C@H](O)c1ccc(O)c(O)c1.O=C(O)C(O)C(O)C(=O)O", "note": "[L(-)-Norepinephrine bitartrate]", "cell-cell fusion (z-score)": "inactive: -0.315"},
      {"smiles": "COc1ccc(Cc2cnc(N)nc2N)cc1OC", "cell-cell fusion (z-score)": "inactive: 1.67"},
      {"smiles": "COCCCOc1ccnc(CS(=O)c2nc3ccccc3[n-]2)c1C.[Na+]", "note": "(stereo not given)", "cell-cell fusion (z-score)": "inactive: 4.44"},
      {"smiles": "CC(C)(C)NCC(O)c1ccc(O)c(CO)c1.CC(C)(C)NCC(O)c1ccc(O)c(CO)c1.O=S(=O)(O)O", "note": "(stereo not given) [Albuterol hemisulfate]", "cell-cell fusion (z-score)": "active: -3.3"},
      {"smiles": "N#C/C(=C\\c1cn(-c2ccccc2)c2ccccc12)C(=O)O", "cell-cell fusion (z-score)": "inactive: 2.82"},
      {"smiles": "COc1ncnc(NS(=O)(=O)c2ccc(N)cc2)c1OC", "cell-cell fusion (z-score)": "inactive: 1.2"},
      {"smiles": "CC(C)(C)N.CCC[C@H](N[C@@H](C)C(=O)N1[C@H](C(=O)O)C[C@@H]2CCCC[C@@H]21)C(=O)OCC", "note": "[Perindopril erbumine]", "cell-cell fusion (z-score)": "inactive: 0.861"},
      {"smiles": "CC(C)=CCC/C(C)=C/CC/C(C)=C/CO", "cell-cell fusion (z-score)": "inactive: 1.78"},
      {"smiles": "Br.Oc1ccc(C2CNCCc3c2cc(O)c(O)c3Cl)cc1", "note": "(stereo not given) [Fenoldopam bromide]", "cell-cell fusion (z-score)": "active: -4.41"},
      {"smiles": "COc1ccc(Br)cc1S(=O)(=O)NC(=O)/C=C/c1ccccc1Cc1ccc2ccccc2c1", "cell-cell fusion (z-score)": "inactive: 0.129"},
      {"smiles": "CC(=O)[C@H]1CCC2C3C[C@H](C)C4=CC(=O)CC[C@]4(C)C3[C@@H](O)C[C@@]21C", "note": "(stereo not given in full)", "cell-cell fusion (z-score)": "inactive: -0.719"},
      {"smiles": "Cn1c(Cn2ccc(C(F)(F)F)c(Oc3cc(Cl)cc(C#N)c3)c2=O)n[nH]c1=O", "note": "[Doravirine]", "cell-cell fusion (z-score)": "inactive: 0.883"},
      {"smiles": "O=C(O)C1CC(C2CCCCN2)CN2CCCCC12", "note": "(stereo not given)", "cell-cell fusion (z-score)": "inactive: 0.961"},
      {"smiles": "C=C1c2c(Cl)ccc(O)c2C(=O)C2=C(O)[C@]3(O)C(=O)C(C(N)=O)=C(O)[C@@H](N(C)C)[C@@H]3[C@@H](O)[C@H]12.O=C(O)c1cc(S(=O)(=O)O)ccc1O", "cell-cell fusion (z-score)": "inactive: 2.63"},
      {"smiles": "C[C@@H]1CC[C@]2(C(=O)O)CC[C@]3(C)C(=CCC4[C@@]5(C)CC[C@H](O)C(C)(C)C5CC[C@]43C)C2[C@H]1C", "note": "(stereo not given in full)", "cell-cell fusion (z-score)": "inactive: 1.73"},
      {"smiles": "CS(=O)(=O)O.O=C(Nc1cccc(Cl)c1)Nc1ncc(CCNc2ncnc3ccsc23)s1", "cell-cell fusion (z-score)": "active: -4.93"},
      {"smiles": "Cl.Clc1ccccc1CN1CCc2sccc2C1", "note": "[Ticlopidine hydrochloride]", "cell-cell fusion (z-score)": "inactive: 3.3"},
      {"smiles": "C=CCn1c(=O)c2c(nc(-c3ccc(S(=O)(=O)O)cc3)n2C)n(C)c1=O", "note": "[1-Allyl-3,7-dimethyl-8-p-sulfophenylxanthine]", "cell-cell fusion (z-score)": "inactive: 3.42"},
      {"smiles": "CC(O)(P(=O)(O)O)P(=O)(O)O", "note": "[Etidronate]", "cell-cell fusion (z-score)": "inactive: 2.55"},
      {"smiles": "Cl.Fc1ccc(CN(C2=NCCN2)c2c(Cl)cccc2Cl)cc1", "note": "[IMID-4F hydrochloride]", "cell-cell fusion (z-score)": "inactive: 3.87"},
      {"smiles": "Cc1nc(-c2ccc(OCC(C)C)c(C#N)c2)sc1C(=O)O", "note": "[Febuxostat (Uloric)]", "cell-cell fusion (z-score)": "inactive: 1.7"},
      {"smiles": "COCC1=C(C(=O)OC(C)OC(=O)OC(C)C)N2C(=O)[C@@H](NC(=O)/C(=N\\OC)c3csc(N)n3)[C@H]2SC1", "note": "(stereo not given in full) [Cefpodoxime proxetil]", "cell-cell fusion (z-score)": "inactive: 1.19"},
      {"smiles": "CCc1cc(Nc2nccc(-c3c(-c4ccc(OC)c(C(=O)Nc5c(F)cccc5F)c4)nc4ccccn34)n2)c(OC)cc1N1CCC(N2CCN(S(C)(=O)=O)CC2)CC1", "cell-cell fusion (z-score)": "inactive: 2.11"},
      {"smiles": "C[C@]12C[C@H](O)[C@H]3[C@@H](CCC4=CC(=O)CC[C@@]43C)[C@@H]1CC[C@@H]2C(=O)CO", "note": "[Corticosterone]", "cell-cell fusion (z-score)": "inactive: 2.62"},
      {"smiles": "O=c1[nH]cnc2c1ncn2C1O[C@H](CO)[C@@H](O)[C@H]1O", "note": "(stereo not given in full)", "cell-cell fusion (z-score)": "inactive: 3.33"},
      {"smiles": "C[C@H]1C[C@@H]2[C@H]([C@@H](O)C[C@@]3(C)[C@H]2CC[C@]3(O)C(=O)CO)[C@@]2(C)C=CC(=O)C=C12", "note": "[Methylprednisolone]", "cell-cell fusion (z-score)": "inactive: 2.19"},
      {"smiles": "CC(=O)N1CCN(c2ccc(OC[C@H]3CO[C@](Cn4ccnc4)(c4ccc(Cl)cc4Cl)O3)cc2)CC1", "note": "[Ketoconazole]", "cell-cell fusion (z-score)": "inactive: 2.12"},
      {"smiles": "COc1ccc(-c2oc3ccccc3c(=O)c2OC)cc1", "cell-cell fusion (z-score)": "inactive: 1.55"},
      {"smiles": "COc1ccc([C@@H]2Sc3ccccc3N(CCN(C)C)C(=O)[C@@H]2OC(C)=O)cc1.Cl", "note": "[Diltiazem hydrochloride]", "cell-cell fusion (z-score)": "inactive: 1.99"},
      {"smiles": "CN1CCC(=C2c3ccccc3Sc3ccccc32)CC1.O=C(O)/C=C\\C(=O)O", "cell-cell fusion (z-score)": "inactive: 1.11"},
      {"smiles": "CCCCc1oc2ccccc2c1C(=O)c1cc(I)c(OCCN(CC)CC)c(I)c1.Cl", "cell-cell fusion (z-score)": "inactive: 3.01"},
      {"smiles": "CC(C)NCC(O)c1cc(O)cc(O)c1.CC(C)NCC(O)c1cc(O)cc(O)c1.O=S(=O)(O)O", "note": "(stereo not given) [Metaproterenol hemisulfate]", "cell-cell fusion (z-score)": "inactive: -0.527"},
      {"smiles": "OC[C@H]1O[C@@H](n2cnc3c(NC4CCCC4)ncnc32)C(O)[C@H]1O", "note": "(stereo not given in full) [N6-Cyclopentyladenosine]", "cell-cell fusion (z-score)": "inactive: 1.56"},
      {"smiles": "COc1cc2c(c(OC)c1OC)-c1ccc(OC)c(=O)cc1[C@@H](NC(C)=O)CC2", "note": "[Colchicine]", "cell-cell fusion (z-score)": "inactive: 0.421"},
      {"smiles": "CCCCn1c(=O)n(Cc2ccccc2F)c(=O)c2nc(Cc3ccc(NC(C)=O)cc3)[nH]c21", "note": "[cPEPCK inhibitor]", "cell-cell fusion (z-score)": "inactive: 1.61"},
      {"smiles": "O=C1NC(=O)C(c2ccccc2[N+](=O)[O-])=C1Nc1ccc(O)c(Cl)c1", "cell-cell fusion (z-score)": "inactive: 1.2"},
      {"smiles": "O=C(O)C(=O)CBr", "note": "[3-Bromopyruvic acid]", "cell-cell fusion (z-score)": "inactive: 1.68"},
      {"smiles": "COc1cc2c(cc1OC)-c1c(oc3cc(O)cc(O)c3c1=O)CO2", "cell-cell fusion (z-score)": "inactive: 1.86"},
      {"smiles": "NS(=O)(=O)c1cc2c(cc1Cl)NC(C1CC3C=CC1C3)NS2(=O)=O", "note": "(stereo not given) [Cyclothiazide]", "cell-cell fusion (z-score)": "inactive: 3.23"},
      {"smiles": "N#CCC(=O)NN", "cell-cell fusion (z-score)": "inactive: 1.21"},
      {"smiles": "C[C@@H]1O[C@@H](O[C@H]2[C@@H](Oc3cc(O)c4c(c3)O[C@H](c3ccc(O)cc3)CC4=O)O[C@H](CO)[C@@H](O)[C@@H]2O)[C@H](O)[C@H](O)[C@H]1O", "cell-cell fusion (z-score)": "inactive: 1.99"},
      {"smiles": "CCOC(=O)C1=C(C)NC(C)=C(C(=O)OC)C1c1cccc([N+](=O)[O-])c1", "note": "(stereo not given) [Nitrendipine]", "cell-cell fusion (z-score)": "inactive: 3.69"},
      {"smiles": "NS(=O)(=O)c1cc(C2(O)NC(=O)c3ccccc32)ccc1Cl", "note": "(stereo not given) [Chlortalidone]", "cell-cell fusion (z-score)": "inactive: 1.99"},
      {"smiles": "CN(C)CCOC(=O)COc1ccc(Cl)cc1.Cl", "note": "[Centrophenoxine hydrochloride]", "cell-cell fusion (z-score)": "inactive: 2.53"},
      {"smiles": "CN(C)CCOC(=O)COc1ccc(Cl)cc1.Cl", "cell-cell fusion (z-score)": "inactive: 2.53"},
      {"smiles": "C#CCN(C)Cc1ccccc1", "note": "[Pargyline]", "cell-cell fusion (z-score)": "inactive: 3.42"},
      {"smiles": "C[N+]1(C)CCN(c2ccccc2)CC1.[I-]", "note": "[1,1-Dimethyl-4-phenyl-piperazinium iodide]", "cell-cell fusion (z-score)": "inactive: 3.14"},
      {"smiles": "CC1=CC(=O)c2ccccc2C1=O", "cell-cell fusion (z-score)": "inactive: -0.974"},
      {"smiles": "c1ccc2c(Cc3c[nH]c4ccccc34)c[nH]c2c1", "cell-cell fusion (z-score)": "inactive: 1.7"},
      {"smiles": "C=C(C)C1CC=C(C)CC1", "note": "(stereo not given)", "cell-cell fusion (z-score)": "inactive: 3.24"},
      {"smiles": "NCc1ccccc1CC(=O)N[C@@H]1C(=O)N2C(C(=O)O)=C(CSc3nnnn3CC(=O)O)CS[C@H]12", "note": "[Ceforanide]", "cell-cell fusion (z-score)": "inactive: 1.54"},
      {"smiles": "Nc1ncnc2c1ncn2C1C[C@H](O)[C@@H](CO)O1", "note": "(stereo not given in full)", "cell-cell fusion (z-score)": "inactive: 1.7"},
      {"smiles": "Br.Br.N=C(N)SCCc1c[nH]cn1", "note": "[Imetit dihydrobromide]", "cell-cell fusion (z-score)": "inactive: 2.29"},
      {"smiles": "CC(C)NC[C@H](O)COc1ccc(CCOCC2CC2)cc1.Cl", "note": "[Levobetaxolol HCl]", "cell-cell fusion (z-score)": "inactive: 1.63"},
      {"smiles": "COC(=O)N(C)c1c(N)nc(-c2nn(Cc3ccccc3F)c3ncccc23)nc1N", "note": "[Riociguat]", "cell-cell fusion (z-score)": "inactive: 2.98"},
      {"smiles": "C=C(C)[C@@H]1CC[C@]2(CO)CC[C@]3(C)[C@H](CCC4[C@@]5(C)CC[C@H](O)C(C)(C)C5CC[C@]43C)C12", "note": "(stereo not given in full)", "cell-cell fusion (z-score)": "inactive: 1.62"},
      {"smiles": "NC(=O)NC1NC(=O)NC1=O", "note": "(stereo not given)", "cell-cell fusion (z-score)": "inactive: 2.65"}
    ]}
  ]
}
